From paper PMC5470874
No constants are given. Whether binding was seen depends on the method and setting. Binding seen in cells or lysates may run through a third protein. Some entries that bind do so weakly or less than the wild type.

Molecular target: p53 (human (endogenous in HCT116)) (UniProt P04637)
Assay: co-IP; reciprocal IP: HCT116 nuclear extracts incubated with IgG or DO-1 p53 antibody; immunoblot for Matrin 3

B1: Matrin 3 (protein, UniProt P43243 1-847)
chain: MSKSFQQSSLSRDSQGHGRDLSAAGIGLLAAATQSLSMPASLGRMNQGTARLASLMNLGMSSSLNQQGAHSALSSASTSSHNLQSIFNIGSRGPLPLSSQHRGDADQASNILASFGLSARDLDELSRYPEDKITPENLPQILLQLKRRRTEEGPTLSYGRDGRSATREPPYRVPRDDWEEKRHFRRDSFDDRGPSLNPVLDYDHGSRSQESGYYDRMDYEDDRLRDGERCRDDSFFGETSHNYHKFDSEYERMGRGPGPLQERSLFEKKRGAPPSSNIEDFHGLLPKGYPHLCSICDLPVHSNKEWSQHINGASHSRRCQLLLEIYPEWNPDNDTGHTMGDPFMLQQSTNPAPGILGPPPPSFHLGGPAVGPRGNLGAGNGNLQGPRHMQKGRVETSRVVHIMDFQRGKNLRYQLLQLVEPFGVISNHLILNKINEAFIEMATTEDAQAAVDYYTTTPALVFGKPVRVHLSQKYKRIKKPEGKPDQKFDQKQELGRVIHLSNLPHSGYSDSAVLKLAEPYGKIKNYILMRMKSQAFIEMETREDAMAMVDHCLKKALWFQGRCVKVDLSEKYKKLVLRIPNRGIDLLKKDKSRKRSYSPDGKESPSDKKSKTDGSQKTESSTEGKEQEEKSGEDGEKDTKDDQTEQEPNMLLESEDELLVDEEEAAALLESGSSVGDETDLANLGDVASDGKKEPSDKAVKKDGSASAAAKKKLKKVDKIEELDQENEAALENGIKNEENTEPGAESSENADDPNKDTSENADGQSDENKDDYTIPDEYRIGPYQPNVPVGIDYVIPKTGFYCKLCSLFYTNEEVAKNTHCSSLPHYQKLKKFLNKLAEERRQKKET
  binding: binds
